From ChEMBL document CHEMBL3988442, “University of Dundee, Small-Polar-MMV Screening Library” (2021).

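Phenotypic screen: M. tuberculosis growth, glucose 7H9 medium, 3 days; the read-out is not stated. Concentration: 50 µM. The record gives no direction; compounds that gave an IC50 in retests scored well above the rest, so higher reads as more growth inhibition. Size under these conditions: about 69,000 compounds, about 760 of them at 50% or above in at least one test.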

Each number is a percent effect as filed. The record does not define 0% and 100%; most values in the screen are far below 50% and negative numbers occur (in some assays of this library far below -100). The compounds are a random part of those screened. Two or more numbers in one place are separate tests of the same structure; such repeats can differ widely.

| Compound | Percent Effect |
|---|---|
| `CC(C)Nc1ncnc2c1CCN(C(=O)CC1CCCC1)CC2` | 28.21 |
| `O=C(NCCNc1ncccn1)C1CCN(C(=O)C2CC2)CC1` | -0.4444 |
| `CCC(C)c1csc(NC(=O)c2sc(-c3nnc[nH]3)nc2C)n1` (stereo not drawn) | 15.61 and 13.92 |
| `CCn1cc(CN(C)C(=O)c2cccc(CCC(C)(C)O)c2)cn1` | 7.259 |
| `Cc1nnc(NC(=O)CCc2c(C)nn3cnnc3c2C)s1` | 4.858 and -10.23 |
| `CC1CCc2nn(CCNC(=O)c3cccs3)c(=O)cc2C1` (stereo not drawn) | -19.77 |
| `CC(C)(C)OC(=O)N1CSC[C@@H]1C(=O)NCc1ccsc1` | -1.831 and 13.53 |
| `O=C(Nc1nnn[nH]1)c1ccc(-n2cccc2)c(F)c1` | 11.6 |
| `COC(=O)c1ccc(N2CCN(C(=O)C3CCC3)C(C)C2)cc1` (stereo not drawn) | 13.27 |
| `Cc1cc(CNCC2(O)CCOCC2)ccc1F` | -13.15 and 0.6934 |
| `COc1cccc(S(=O)(=O)NC(=O)CCC2CCCO2)c1` (stereo not drawn) | 19.74 |
| `O=C(O)C(F)(F)F.O=C(O)C(F)(F)F.[H][C@@]12CCN(Cc3ccncc3)C[C@]1([H])O[C@@H](C(=O)NCC1CCOCC1)C2` | 10.88 |
| `Cc1nc(N2CCOc3ccc(CO)cc3C2)c2nc(C)oc2n1` | 4.409 and -2.6 |
| `O=C(NCCN1CCOCC1)NCc1ccccc1-n1cccn1` | 12.62 |
| `Cc1cc(=O)n(CCNC(=O)c2ccccc2Cl)cn1` | 40.25 |
| `Cc1ccc(C(=O)N2CCN(CCCSCC#N)CC2)o1` | -37.27 |
| `CC(NC(=O)NC1CCN(Cc2ccncc2)CC1)c1ccc(F)cc1` (stereo not drawn) | -2.325 and -18.98 |
| `COCCc1ncc(CN2C[C@@H](C(=O)O)[C@H](C(C)C)C2)cn1` | -73.87 |
| `O=C1NC2(CCc3ccccc31)CCN(C(=O)c1ccncc1)C2` (stereo not drawn) | 14.26 |
| `CC(=O)N1CCCN(C(=O)NCCNc2cnccn2)CC1` | 2.205 |
| `CCOC(=O)N1CCN(C(=O)C2Cc3ccccc3CN2C)CC1` (stereo not drawn) | -39.05 |
| `CC(C)(C)c1noc(CN2CCN(C(=O)c3ccco3)CC2)n1` | 16.69 |
| `CCOCCn1nc(C)cc1C(=O)N1C[C@@H](C)[C@](O)(C2CC2)C1` | -2.675 |
| `Cc1nn(C(C)(C)C)c(C)c1C(=O)NCC1(C(N)=O)CCOCC1` | 0.3377 |
| `CCC(CO)N(Cc1ccco1)C(=O)c1cccc(C)c1O` (stereo not drawn) | 18.49 |
| `O=C1NCC[C@]12CN(Cc1ccoc1)C[C@H]2c1ccccc1` | -43.16 |
| `Cc1nn(C)c(C)c1C1COCCN1C(=O)c1ccccc1` (stereo not drawn) | 21.61 |
| `[H][C@@]12CO[C@@H](CNS(C)(=O)=O)[C@]1([H])CCN(C(=O)c1cnccn1)C2` | 3.455 and -0.9551 |
| `[H][C@@]12CCN(Cc3ccccn3)[C@@]1([H])CCN2C(=O)c1cnoc1C` | -11.59 |
| `O=C(NCCN1CCCCC1)C(c1ccccc1)N1CCCC1` (stereo not drawn) | -22 |
| `CCOc1cccc(COC(=O)c2ccc(Cl)cn2)n1` | 37.23 |
| `Cc1cc(N2CCN(CC(=O)N(C)C)CC2)nc(-c2ccncc2)n1` | -7.737 and -3.573 |
| `[H][C@]12CC[C@]([H])(CN(S(=O)(=O)N(C)C)C1)N(C(=O)Cn1ccnc1CC)C2` | 6.633 |
| `Cc1nc(CN2C(=O)CC3(CCN(C(N)=O)CC3)c3ccccc32)cs1.O=C(O)C(F)(F)F` | -27 and -6.892 |
| `O=C(Nc1cc[nH]n1)c1ccc(COCC(F)(F)F)cc1` | 42.66 |
| `N#Cc1cccnc1OC1CCN(S(=O)(=O)c2c(F)cccc2F)CC1` | -33.85 |
| `Cn1c(C2CC2)nc2c1CCN(CCOc1ccccc1C#N)C2` | -5.439 |
| `O=C(O)C(F)(F)F.c1cc(CN2Cc3nnn(CC4CC4)c3C(COCC3CC3)C2)co1` (stereo not drawn) | -6.609 |
| `[H][C@@]12CN(Cc3cc4ccccc4s3)C[C@]1([H])N(Cc1ccccn1)C(=O)O2` | -2.301 |
| `CC(C)c1nnc(CN2CC(n3cccn3)Cc3ccccc32)o1` (stereo not drawn) | 9.254 |
| `Cc1nc(CNC(=O)NCc2cccnc2N(C)C)cs1` | 19.77 |
| `Cc1noc(-c2ccc(-n3ncc(C(=O)O)c3C)nc2)n1` | 0.6315 and -2.627 |
| `CCS(=O)(=O)NCCNC(=O)c1cnc(-c2ccccc2)nc1` | 8.075 and -0.1794 |
| `Cc1cc(Nc2ccc3c(c2)CC(=O)N3)nc(C2CC2)n1` | 23.06 |
| `CS(=O)(=O)N1CCOC2(CCCN(c3cnccn3)C2)C1.O=C(O)C(F)(F)F` (stereo not drawn) | 14.25 |
| `O=C(O)C(F)(F)F.[H][C@]12CCN(C(=O)c3ccncc3F)C[C@@]1([H])OCCN(c1ncccn1)C2` | -5.141 |
| `CCn1cc(CNc2ccc3nccnc3c2)cn1` | -17.72 |
| `COC(=O)C1CN(Cc2cc(F)ccc2Br)CCO1` (stereo not drawn) | 16.87 and 9.345 |
| `Cc1nsc(N2CCc3sccc3C2)n1` | 9.214 and -9.922 |
| `CC(c1ncc(-c2ccccc2)o1)N1CCN(C(=O)N(C)C)CC1` (stereo not drawn) | -5.255 |
| `CC(C#N)CSc1ccccc1NCC(=O)NC(C1CC1)C1CC1` (stereo not drawn) | 2.038 and 3.332 |
| `CCn1cnnc1C1CCN(C(=O)C(OC)c2ccccc2)CC1` (stereo not drawn) | 5.51 |
| `CCC(=O)N1CCCC1c1csc(Nc2cnccn2)n1` (stereo not drawn) | -10.34 |
| `CCCS(=O)(=O)N1Cc2nccn2CC(CN2CCCC2)C1.O=C(O)C(F)(F)F` (stereo not drawn) | -26.84 and 0.3981 |
| `Cc1ccc(CN2CCc3nnc(COCCN(C)C)n3CC2)o1.O=C(O)C(F)(F)F.O=C(O)C(F)(F)F` | -11.76 |
| `COc1ccc(CNCC(C)Oc2ccccn2)cc1.Cl` (stereo not drawn) | -11.18 |
| `Cc1cnn(C2CCCN(C(=O)c3ccc(O)nc3)C2)c1` (stereo not drawn) | 15.77 |
| `Cc1cccc(CN2CCC3(CC(C(=O)NCC(C)C)=NO3)C2)c1` (stereo not drawn) | -8.957 |
| `O=C1OCCN1Cc1nc(C2(c3ccc(F)cc3)CCOC2)no1` (stereo not drawn) | -6.872 |
| `Cc1noc(C)c1CNC(=O)N1CCC(OCC2CC2)CC1` | -24.38 |
| `Cc1ccc(NC(=O)CNC(C)Cc2ccsc2)cc1F` (stereo not drawn) | 17.26 and 10.08 |

Some entries from above, unchanged:

{"compound": "CC1CCc2nn(CCNC(=O)c3cccs3)c(=O)cc2C1", "stereo": "stereo not drawn", "Percent Effect": -19.77}
{"compound": "Cc1nc(N2CCOc3ccc(CO)cc3C2)c2nc(C)oc2n1", "Percent Effect": "4.409 and -2.6"}
{"compound": "CCOCCn1nc(C)cc1C(=O)N1C[C@@H](C)[C@](O)(C2CC2)C1", "Percent Effect": -2.675}
{"compound": "Cc1nsc(N2CCc3sccc3C2)n1", "Percent Effect": "9.214 and -9.922"}
{"compound": "CC(C)c1nnc(CN2CC(n3cccn3)Cc3ccccc32)o1", "stereo": "stereo not drawn", "Percent Effect": 9.254}